Results as given in PubChem BioAssay AID2685 (National Center for Advancing Translational Sciences (NCATS), 2010).
The other results are listed elsewhere or left out. These are further read-outs of the screen, such as a control signal, another cell line or another target. No call is given for them. The list favours compounds with an active or inconclusive main result. Potencies come from curve fits of mixed quality, noted in brackets.

Assay: qHTS Assay for Lipid Storage Modulators in Drosophila S3 Cells;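 as to cell number change: cells counted by Cell Tracker Red CMTPX staining in the red channel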
Details: BODIPY lipid droplet fluorescence, 18-24 h; for cell number change: measured here: cell count max response, cells fed with added oleic acid
Method in brief: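 Drosophila S3 cells got compounds at several concentrations plus oleic acid (400 uM solution). Laser-scanning cytometry with 488 nm excitation read lipid droplets at 500-530 nm and cells at 575-640 nm. Percent activity was relative to 20 uM Triacsin C.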

[1] = measured here: cell number channel AC50, cells fed with added oleic acid
[2] = measured here: lipid fluorescence (Fed channel) AC50, cells fed with added oleic acid

Row | SMILES | cell number change [%] | AC50 [1] | AC50 [2]
1 | Cc1ccc(NS(=O)(=O)c2ccc(C(=O)N3CCN(S(=O)(=O)c4ccccc4)CC3)cc2)cc1 | -37.2 | 20.6 µM [falling, partial curve, poor fit] | 3.26 µM [falling, partial curve]
2 | C=CCOc1cccc(CNCc2ccncc2)c1 | 23.5 | – | –
3 | CNC(=O)c1cc(NC(=O)CCn2nc(-c3ccc(C)cc3)c3ccccc3c2=O)ccc1OC | 19.1 | – | –
4 | Cc1cc(=O)oc2cc(OCC(=O)OCC(=O)NC(=O)NC(C)C)ccc12 | -44.9 | 2.91 µM [falling, full curve] | 11.6 µM [falling, partial curve]
5 | CCOC(=O)C1=C(CN2CCN(C(=O)c3ccco3)CC2)NC(=O)NC1c1ccccc1 (stereo unspecified) | -15.4 | – | –
6 | Cc1ccccc1-c1coc2cc(O)ccc2c1=O | -8.35 | 0.82 µM [falling, full curve] | 0.82 µM [falling, full curve, poor fit]
7 | C=CCOC(=O)CSCC(NC(=O)OC(C)(C)C)C(=O)OCC (stereo unspecified) | -8.21 | 4.11 µM [rising, single point] | –
8 | COc1cccc(C(=O)NCc2ccc(N3CCN(C(=O)OC(C)(C)C)CC3)cc2)c1 | – | – | 6.51 µM [falling, partial curve]
9 | CN(CC(=O)Nc1ccccc1C(F)(F)F)C(=O)Cc1ccccc1F | -5.86 | – | 0.13 µM [rising, full curve, poor fit]
10 | COc1ccc(CNC(=O)CN2C(=O)NC3(CCCc4sccc43)C2=O)cc1 (stereo unspecified) | – | 2.06 µM [falling, partial curve, poor fit] | 1.46 µM [falling, partial curve, poor fit]
11 | CCCCOc1ccc(CSc2nncn2N)cc1 | 0.847 | – | 0.82 µM [falling, full curve, poor fit]
12 | O=C(COC(=O)Cc1cccc(F)c1)NCCc1ccccc1 | 5.87 | – | 0.206 µM [rising, full curve, poor fit]
13 | CCc1ccc(NC(=O)N2CCN(C(=O)C3CCCO3)CC2)cc1 (stereo unspecified) | 26.5 | – | 13 µM [rising, partial curve]
14 | Cc1ccc(C)c(OCCn2cc(/C=C(\C#N)C(=O)NCc3ccco3)c3ccccc32)c1 | 42.4 | 25.9 µM [rising, single point] | 18.4 µM [rising, single point]
15 | CCOC(=O)[C@@H]1[C@H]2COc3cc(OC)ccc3[C@@H]2N2C(=O)N(c3cccc(C)c3)C(=O)[C@@]12C | 6.29 | – | 29.1 µM [rising, single point]
16 | COc1ccc(CNC(=O)CN(Cc2ccc(C)cc2)C(=O)c2csnn2)cc1 | 17.9 | – | 6.51 µM [rising, single point]
17 | CCCCNC(=O)CCC(=O)Nc1ccc2nc(N3CCC(C)CC3)cc(C)c2c1 | -28.3 | – | –
18 | CSc1ccccc1OCc1cc(C(=O)N2CCC(Oc3cccnc3)CC2)no1 | -13.1 | – | 11.6 µM [falling, partial curve]
19 | Cc1ccc(N2C(=O)N(CC(=O)N3c4ccccc4CC3C)C(=O)C2C)cc1 (stereo unspecified) | -16.4 | – | 4.11 µM [rising, partial curve]
20 | CCc1nnc(NC(=O)C2CCN(C(=O)c3ccccc3C)CC2)s1 | 37 | 14.6 µM [rising, single point] | –

Reformatted with tabs: entries from further up.
Row	SMILES	cell number change [%]	AC50 [1]	AC50 [2]
17	CCCCNC(=O)CCC(=O)Nc1ccc2nc(N3CCC(C)CC3)cc(C)c2c1	-28.3	–	–
18	CSc1ccccc1OCc1cc(C(=O)N2CCC(Oc3cccnc3)CC2)no1	-13.1	–	11.6 µM [falling, partial curve]
19	Cc1ccc(N2C(=O)N(CC(=O)N3c4ccccc4CC3C)C(=O)C2C)cc1 (stereo unspecified)	-16.4	–	4.11 µM [rising, partial curve]
20	CCc1nnc(NC(=O)C2CCN(C(=O)c3ccccc3C)CC2)s1	37	14.6 µM [rising, single point]	–

Further records follow:

Row | SMILES | cell number change [%] | AC50 [1] | AC50 [2]
21 | CC(C)CN(CCOc1cccc(N2C(=O)C3=C(CCCC3)C2=O)c1)CC(C)C | 19.8 | – | 20.6 µM [rising, single point]
22 | COCCNCCCCOc1ccccc1-c1ccccc1 | 86.4 | 5.8 µM [rising, full curve] | 29.1 µM [rising, single point]
23 | Cn1c(=O)oc2ccc(C(=O)CSc3nnnn3-c3ccccc3)cc21 | -22.9 | – | 0.00411 µM [rising, full curve, poor fit]
24 | Cc1ccccc1OCC(=O)N=Nc1c(O)n(C)c2ccccc12 | 7.36 | – | 4.11 µM [rising, full curve, poor fit]
25 | Cc1cc(C)cc(NC(=O)CCN2C(=O)c3ccccc3C2=O)c1 | 4.72 | – | –
26 | O=[N+]([O-])c1ccc(/C=N\NS(=O)(=O)c2ccc(F)cc2)o1 | 70.3 | 29.1 µM [rising, single point] | 29.1 µM [rising, single point]
27 | c1ccc(C[C@H]2CNCCN2CC2(c3ccccc3)CC2)cc1 | -1.58 | – | 3.26 µM [falling, single point]
28 | O=C(Nc1ncccc1O)c1ccc2ccccc2c1 | 13 | 2.31 µM [rising, partial curve, poor fit] | 29.1 µM [falling, single point]
29 | COc1ccc(CCNC(=O)c2ccc3nc(N4CCCCC4)sc3c2)cc1OC | -33.2 | 20.6 µM [falling, single point] | –
30 | N#Cc1c(N2CCN(C(=O)c3ccco3)CC2)nc(-c2ccccc2)c2c1CCCC2 | -39.6 | 29.1 µM [falling, single point] | 29.1 µM [falling, single point]
31 | O=C(N/N=C/c1ccncc1)c1ccccn1 | -39 | 14.6 µM [falling, partial curve, poor fit] | –
32 | CNC(=O)c1ccccc1NC(=O)c1ccc(C)c(S(=O)(=O)N2CCCCC2)c1 | -27 | – | –
33 | CCCN(CCC)CCNS(=O)(=O)c1ccc2c(c1)CCN2C(=O)C1CCC1 | 6.97 | – | 0.146 µM [falling, full curve, poor fit]
34 | CCOC(=O)c1c(NC(=O)COc2ccccc2OCC)sc2c1CC(C)(C)NC2(C)C | -65.9 | 20.6 µM [falling, partial curve] | –
35 | O=C(OCCN=C1NS(=O)(=O)c2ccccc21)c1cccs1 | 4.93 | 0.00411 µM [rising, full curve, poor fit] | 6.51 µM [rising, single point]
36 | NC(=O)c1ccc(NC(=O)CCCN2C(=O)NC3(CCCC3)C2=O)cc1 | -9.77 | – | 20.6 µM [rising, single point]
37 | CCC1CN(C(=O)N2CCC(C(=O)NCc3ccccc3OC)CC2)c2cc(C)ccc2O1 (stereo unspecified) | -15.3 | – | 6.51 µM [rising, single point]
38 | COc1ccc(-n2ncc(C(C)NS(=O)(=O)c3cccs3)c2C)cc1 (stereo unspecified) | 6.25 | – | –
39 | CCOC(=O)C1(CCOc2ccccc2)CCN(Cc2ccc(CO)o2)CC1 | -16.5 | – | –
40 | CC(C)(C)C(=O)Nc1ccc(-c2nnc3n2CCCCC3)cc1 | 13 | – | 0.103 µM [rising, full curve, poor fit]

Row | SMILES | cell number change [%] | AC50 [1] | AC50 [2]
41 | COc1ccc(CC(C)CC(=O)NCCc2ccc(OC)c(OC)c2)cc1 (stereo unspecified) | – | 0.116 µM [rising, full curve, poor fit] | –
42 | CCOC(=O)CNc1ccc(OC(F)(F)F)cc1 | -20.6 | 0.58 µM [falling, single point] | –
43 | Fc1ccc(CNC(=S)Nc2ccccc2Cl)cc1 | 37.1 | 29.1 µM [rising, single point] | –
44 | N#Cc1ccc(CN2CCN(C(=O)c3ccc(S(=O)(=O)N4CCCCCC4)cc3)CC2)cc1 | -10.9 | – | –
45 | O=C(NN1CCOCC1)c1ccc(Cl)c(Cl)c1 | -9.19 | – | 16.4 µM [falling, single point]
46 | O=C(O)CCN1C(=O)/C(=C2\C(=O)N(Cc3ccccc3Cl)c3ccccc32)SC1=S | 22 | – | 11.6 µM [rising, partial curve, poor fit]
47 | O=C(COC(=O)c1ccco1)c1ccc(Cl)cc1 | – | – | 6.51 µM [rising, single point]
48 | CC(C)(C)c1nn(-c2ccccc2)c2[nH]c(=O)c(CNCc3ccco3)cc12 | -20.9 | – | 7.31 µM [falling, single point]
49 | Cc1ccc(CNC(=O)c2ccc(NC3=NC4CS(=O)(=O)CC4S3)cc2)cc1 (stereo unspecified) | 20.7 | – | –
50 | COc1ccc(C2=NS(=O)(=O)N(C)C(C(=O)N3CCc4ccccc4C3)=C2)cc1OC | -30.5 | 20.6 µM [falling, partial curve, poor fit] | –
51 | COc1ccc(/C=N/Nc2cc(C)nc(-n3nc(C)cc3C)n2)c(OC)c1 | -24.7 | – | 13 µM [falling, partial curve, poor fit]
52 | CC(=O)Oc1ccccc1N1C(=O)c2ccc(C(=O)O)cc2C1=O | -35.5 | 0.164 µM [falling, full curve, poor fit] | 0.411 µM [falling, partial curve, poor fit]
53 | CNC(=O)c1cc(S(=O)(=O)NC2CCCCCC2)ccc1C | -9.39 | – | 29.1 µM [falling, single point]
54 | CCOCCCNC(=S)Nc1ccc2nc(N3CCN(CC)CC3)cc(C)c2c1 | – | – | 25.9 µM [rising, single point]
55 | Cc1cc(NC(=O)C2CCCCC2)ccc1NC(=O)c1ccccc1Cl | 2.97 | 3.66 µM [rising, single point] | –
56 | O=C(Nc1ccc(Br)cc1)Nc1ccccc1Cl | -50 | 23.1 µM [falling, single point] | 16.4 µM [falling, single point]
57 | CCOc1cccc(-c2nnc(SCC(=O)Nc3ccc(OC)c(OC)c3)n2N)c1 | 8.95 | – | 0.731 µM [rising, partial curve, poor fit]
58 | COc1cc(Br)c(C(=O)c2nccc3cc(OC)c(OC)cc23)cc1OC | -34 | 9.2 µM [falling, partial curve] | 0.651 µM [falling, partial curve, poor fit]
59 | O=C(c1cc(-c2ccc(F)cc2)on1)N1CCN(c2ccc(F)cc2)CC1 | 10 | – | 29.1 µM [rising, single point]
